Library screen at single concentrations

Protein sequences, listed by entry. Tags and fused reporters are not part of them. Residues count along the entry.
UniProt P9WFT3, whole entry: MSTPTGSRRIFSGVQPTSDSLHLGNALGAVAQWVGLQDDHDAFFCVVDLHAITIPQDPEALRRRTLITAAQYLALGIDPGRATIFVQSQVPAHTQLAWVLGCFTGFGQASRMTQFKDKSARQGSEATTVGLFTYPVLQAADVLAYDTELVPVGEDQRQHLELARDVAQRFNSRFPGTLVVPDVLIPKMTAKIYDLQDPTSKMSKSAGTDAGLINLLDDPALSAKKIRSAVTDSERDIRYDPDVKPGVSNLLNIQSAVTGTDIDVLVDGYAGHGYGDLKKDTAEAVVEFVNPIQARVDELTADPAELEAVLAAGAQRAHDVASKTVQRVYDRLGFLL
UniProt P9WPC5, whole entry: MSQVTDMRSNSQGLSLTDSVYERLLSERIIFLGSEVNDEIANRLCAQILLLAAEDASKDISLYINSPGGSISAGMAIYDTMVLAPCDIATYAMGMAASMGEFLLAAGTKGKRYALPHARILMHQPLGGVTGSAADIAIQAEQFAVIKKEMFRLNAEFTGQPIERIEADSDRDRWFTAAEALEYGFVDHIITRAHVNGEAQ
UniProt P9WPC3, whole entry partner: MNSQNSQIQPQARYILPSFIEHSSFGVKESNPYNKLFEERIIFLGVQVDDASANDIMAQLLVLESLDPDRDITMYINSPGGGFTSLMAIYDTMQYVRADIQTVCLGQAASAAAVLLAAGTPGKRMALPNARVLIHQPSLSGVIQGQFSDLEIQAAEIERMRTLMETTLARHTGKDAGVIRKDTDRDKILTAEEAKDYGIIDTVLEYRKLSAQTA
UniProt I6X8D2, whole entry: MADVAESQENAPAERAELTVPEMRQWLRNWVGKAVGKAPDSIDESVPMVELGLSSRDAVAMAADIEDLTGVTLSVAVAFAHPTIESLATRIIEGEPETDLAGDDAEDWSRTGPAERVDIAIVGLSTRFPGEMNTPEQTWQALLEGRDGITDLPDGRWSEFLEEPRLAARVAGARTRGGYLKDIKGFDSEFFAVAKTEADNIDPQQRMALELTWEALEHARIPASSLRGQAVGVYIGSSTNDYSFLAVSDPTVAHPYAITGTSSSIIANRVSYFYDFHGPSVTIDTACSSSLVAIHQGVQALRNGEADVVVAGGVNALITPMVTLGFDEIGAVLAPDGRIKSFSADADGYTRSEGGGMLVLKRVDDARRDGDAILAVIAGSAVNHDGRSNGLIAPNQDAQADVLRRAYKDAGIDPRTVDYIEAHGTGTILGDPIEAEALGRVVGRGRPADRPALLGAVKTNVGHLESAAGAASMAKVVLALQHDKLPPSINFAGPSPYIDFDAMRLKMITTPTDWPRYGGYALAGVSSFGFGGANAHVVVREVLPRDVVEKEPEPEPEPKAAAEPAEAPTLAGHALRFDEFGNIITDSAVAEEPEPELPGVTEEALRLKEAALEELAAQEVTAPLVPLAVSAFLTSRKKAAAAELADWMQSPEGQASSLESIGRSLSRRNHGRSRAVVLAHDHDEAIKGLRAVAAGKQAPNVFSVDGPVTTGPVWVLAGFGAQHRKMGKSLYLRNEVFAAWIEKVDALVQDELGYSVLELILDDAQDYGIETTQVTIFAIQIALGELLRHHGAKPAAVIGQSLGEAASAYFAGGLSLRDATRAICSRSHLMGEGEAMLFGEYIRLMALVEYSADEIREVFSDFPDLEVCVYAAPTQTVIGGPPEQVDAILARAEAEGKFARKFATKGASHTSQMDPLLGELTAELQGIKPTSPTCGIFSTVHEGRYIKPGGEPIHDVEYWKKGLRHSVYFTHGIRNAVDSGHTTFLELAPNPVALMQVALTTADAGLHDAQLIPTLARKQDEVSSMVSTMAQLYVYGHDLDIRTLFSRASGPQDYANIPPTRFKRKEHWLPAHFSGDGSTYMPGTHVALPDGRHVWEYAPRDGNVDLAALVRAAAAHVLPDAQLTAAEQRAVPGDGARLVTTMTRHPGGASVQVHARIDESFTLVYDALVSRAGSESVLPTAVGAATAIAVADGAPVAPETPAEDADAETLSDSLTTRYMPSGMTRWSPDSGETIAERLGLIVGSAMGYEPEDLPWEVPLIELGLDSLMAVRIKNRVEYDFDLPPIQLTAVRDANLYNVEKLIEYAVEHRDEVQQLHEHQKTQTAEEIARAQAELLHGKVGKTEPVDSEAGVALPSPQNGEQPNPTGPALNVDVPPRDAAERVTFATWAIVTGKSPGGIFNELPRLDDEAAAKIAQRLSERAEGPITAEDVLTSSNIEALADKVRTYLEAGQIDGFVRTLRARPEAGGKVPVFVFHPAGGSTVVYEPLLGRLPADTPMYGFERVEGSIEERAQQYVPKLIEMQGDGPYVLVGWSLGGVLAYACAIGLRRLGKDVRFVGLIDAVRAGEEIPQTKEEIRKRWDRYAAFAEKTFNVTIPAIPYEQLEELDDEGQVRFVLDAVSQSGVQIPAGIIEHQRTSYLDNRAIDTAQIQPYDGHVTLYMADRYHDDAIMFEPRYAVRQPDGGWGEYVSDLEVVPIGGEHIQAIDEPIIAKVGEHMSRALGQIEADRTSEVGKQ
UniProt Q8IDJ8, 1-583: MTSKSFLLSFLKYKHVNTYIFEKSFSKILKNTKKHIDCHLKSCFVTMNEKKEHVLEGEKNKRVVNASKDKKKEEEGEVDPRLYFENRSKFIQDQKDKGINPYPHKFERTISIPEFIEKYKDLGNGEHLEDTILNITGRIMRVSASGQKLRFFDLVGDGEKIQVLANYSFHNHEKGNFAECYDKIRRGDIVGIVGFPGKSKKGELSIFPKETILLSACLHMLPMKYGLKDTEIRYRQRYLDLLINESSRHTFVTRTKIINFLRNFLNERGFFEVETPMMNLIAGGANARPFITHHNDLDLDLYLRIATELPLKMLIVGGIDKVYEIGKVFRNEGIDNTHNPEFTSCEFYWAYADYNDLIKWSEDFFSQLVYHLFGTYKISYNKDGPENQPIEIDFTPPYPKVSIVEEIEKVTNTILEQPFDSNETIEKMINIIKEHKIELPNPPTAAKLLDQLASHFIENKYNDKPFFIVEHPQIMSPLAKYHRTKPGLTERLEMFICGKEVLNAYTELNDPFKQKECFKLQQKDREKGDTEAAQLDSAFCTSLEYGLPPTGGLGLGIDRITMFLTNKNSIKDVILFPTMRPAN

Source: ChEMBL document CHEMBL3988442, “University of Dundee, Small-Polar-MMV Screening Library” (2021).

MtTrpRS: 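Enzyme assay of tryptophanyl-tRNA synthetase; the read-out is not stated. Target: Tryptophan-tRNA ligase, Mycobacterium tuberculosis (UniProt P9WFT3). Concentration: 10 µM. Direction is not recorded; retested compounds ran higher, which suggests that high means inhibition. Size under these conditions: about 65,000 compounds, about 64 of them at 50% or above in at least one test.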
ClpP1P2: 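ClpP1P2, Mycobacterium tuberculosis (UniProt P9WPC5 and UniProt P9WPC3). Protease assay of ClpP1P2, read by the AMC dye that it sets free. Compounds at 50 µM. Higher reads as stronger inhibition, judged from the few compounds that gave an IC50. Most other retested compounds had strongly negative values. About 69,000 compounds were tested under these conditions; 0.015% (about 10) showed 50% or more at least once.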
Pks13 thioesterase: 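Polyketide synthase Pks13, Mycobacterium tuberculosis (UniProt I6X8D2). Enzyme assay of the thioesterase domain of polyketide synthase 13; the read-out is not stated. Concentration: 30 µM. Higher reads as stronger inhibition (inferred from which compounds were picked for retests). About 67,000 compounds were tested under these conditions; 0.46% (about 300) showed 50% or more at least once.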
PfKRS1: 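Lysine-tRNA ligase, Plasmodium falciparum 3D7 (UniProt Q8IDJ8). Enzyme assay of the cytosolic lysyl-tRNA synthetase in 384-well plates, read by luminescence. Tested at 30 µM. Direction is inferred from only a few compounds that gave an IC50; most scored high, so higher reads as stronger inhibition. About 69,000 compounds were tested under these conditions; 0.071% (about 49) showed 50% or more at least once.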

Each number is a percent effect as filed. The controls that fix the scale are not given in the record; negative values are as filed. The compounds are a random part of those screened.

- CC(C)N1CCC(CC(=O)NC[C@H]2CCc3ccccc3O2)CC1 : MtTrpRS: 0.859%; ClpP1P2: 2.678%; Pks13 thioesterase: -7.984%; PfKRS1: 4.465%
- Cc1ccc(CN2CCCC3(CCCN3S(C)(=O)=O)C2)s1 (centres unmarked) : MtTrpRS: -7.114%; ClpP1P2: -2.663%; Pks13 thioesterase: -10.82%; PfKRS1: 6.713%
- CC1(C(=O)NCCCOc2ccccc2F)CC(=O)N2C=CC=CC2=N1 (centres unmarked) : MtTrpRS: -2.011%; ClpP1P2: -34.92%; Pks13 thioesterase: 3.256%; PfKRS1: -0.8983%
- Cc1nc(C)c(CN2CCOC(Cc3ccccc3Cl)C2)nc1C (centres unmarked) : MtTrpRS: 1.888%; ClpP1P2: -12.52%; Pks13 thioesterase: 5.786%; PfKRS1: 3.918%
- COc1ncc(NCc2ccc(F)cc2)cc1C(N)=O : MtTrpRS: -3.579%; ClpP1P2: -68.31%; Pks13 thioesterase: -10.38%; PfKRS1: 1.588%
- c1ccc2oc(N3CCn4c(nnc4C4CC4)C3)nc2c1 : MtTrpRS: -2.093%; ClpP1P2: -2.837%; Pks13 thioesterase: -22.79%; PfKRS1: 2.611%
- Cc1nc(C)n(CC2CCCN(CCCOc3ccc(F)cc3)C2)n1 (centres unmarked) : MtTrpRS: -2.698%; ClpP1P2: 1.92%; Pks13 thioesterase: -14.67%; PfKRS1: -0.0551%
- Cc1nn(C)c(C)c1C1CCCN1C(=O)c1cnc2n[nH]c(C)c2c1 (centres unmarked) : MtTrpRS: -3.013%; ClpP1P2: 8.127%; Pks13 thioesterase: -11.39%; PfKRS1: 0.274%
- CCOCCC(=O)N1CCCC(CO)(CC2CC2)C1 (centres unmarked) : MtTrpRS: 4.059%; ClpP1P2: -2.894%; Pks13 thioesterase: -18.22%; PfKRS1: 4.68%
- COc1ccc(C(=O)NCCN2CCC(c3cccs3)CC2)cc1OC : MtTrpRS: 5.282%; ClpP1P2: -6.223%; Pks13 thioesterase: 25.2%; PfKRS1: 5.873%
- Cc1cc(CNC(=O)NCCCC(=O)N2CCc3ccccc32)no1 : MtTrpRS: -1.125%; ClpP1P2: 0.5732%; Pks13 thioesterase: -25.38%; PfKRS1: 2.08%
- CC(=O)c1cnc(N(C)Cc2cc(C)cc(C)n2)nc1C : MtTrpRS: -1.25%; ClpP1P2: 3.841%; Pks13 thioesterase: -3.579%; PfKRS1: 16.91%
- CO[C@@H]1CCN(Cc2nccs2)C[C@@H]1Cc1ccccc1 : MtTrpRS: -2.716%; ClpP1P2: -7.717%; Pks13 thioesterase: -19.54%; PfKRS1: -4.157%
- Cc1ccc(C(=O)Cc2c(Cl)nc3n(C)c(=O)n(C)c(=O)n23)cc1 : MtTrpRS: -2.913%; ClpP1P2: 17.75%; Pks13 thioesterase: -11.67%; PfKRS1: 0%
- CCc1ncc2c(n1)CN(Cc1nnc(C(C)C)o1)CC2 : MtTrpRS: 7.326%; ClpP1P2: -22.36%; Pks13 thioesterase: 7.107%; PfKRS1: 0.998%
- O=C(Cn1ncc2c(c1=O)CCCC2)Nc1cccc2[nH]ccc12 : MtTrpRS: 1.232%; ClpP1P2: 3.458%; Pks13 thioesterase: -8.025%; PfKRS1: 5.488%
- Cc1noc([C@@H]2C[C@@H]3CCN(c4nnc(C)s4)C[C@H]3O2)n1 : ClpP1P2: 2.246%; Pks13 thioesterase: -5.701%; PfKRS1: 4.051%
- CC(OCC1CC1)C(=O)Nc1ccn(Cc2ccccc2)n1 (centres unmarked) : MtTrpRS: 0.2463%; ClpP1P2: -17%; Pks13 thioesterase: 4.763%; PfKRS1: 0.884%
- CCc1ccccc1C(=O)NS(=O)(=O)CCCC#N : MtTrpRS: -0.2742%; ClpP1P2: -0.9982%; Pks13 thioesterase: -10.94%; PfKRS1: 4.122%
- Cc1nn(C2CCS(=O)(=O)C2)c(C)c1CC(=O)NCc1ccccc1Cl (centres unmarked) : MtTrpRS: 1.417%; ClpP1P2: 5.841%; Pks13 thioesterase: -22.01%; PfKRS1: 7.964%
- CN(CCO)Cc1nnc(C2CCN(C(=O)c3cccn3C)CC2)n1C : MtTrpRS: -5.578%; ClpP1P2: -0.805%; Pks13 thioesterase: -26.38%; PfKRS1: 7.029%
- Cc1ccccc1Oc1ncccc1CNC(=O)Cn1cccnc1=O : MtTrpRS: 6.754%; ClpP1P2: 5.284%; Pks13 thioesterase: -35.92%; PfKRS1: 0.3747%
- CCN(C)c1ncnc2c1CCN(C(=O)N(C)C)CC2 : MtTrpRS: -3.293%; ClpP1P2: -13.24%; Pks13 thioesterase: 4.762%; PfKRS1: 6.765%
- CCc1cccc(N2CCC(NC(=O)c3ccc(=O)[nH]n3)CC2)c1 : MtTrpRS: 0.4873%; ClpP1P2: 1.304%; Pks13 thioesterase: 0.2626%; PfKRS1: 6.702%
- O=S(=O)(Nc1cnc(N2CCCC2)nc1)c1ccc(F)cc1F : MtTrpRS: 1.715%; ClpP1P2: 10.06%; Pks13 thioesterase: -16.71%; PfKRS1: 9.94%
- CCCn1cc(C(=O)N2CCOC(c3nc(-c4cccs4)no3)C2)cn1 (centres unmarked) : ClpP1P2: -4.831%; Pks13 thioesterase: 10.73%; PfKRS1: 2.521%
- NC(=O)CN1CCC(OCc2ccc(Cl)c(Cl)c2)CC1 : MtTrpRS: -0.7199%; ClpP1P2: -7.301%; Pks13 thioesterase: -3.911%; PfKRS1: 4.46%
- CN(C)CCC1CCCCN1Cc1cnc(-c2ccccn2)nc1 (centres unmarked) : MtTrpRS: -1.509%; ClpP1P2: -1.436%; Pks13 thioesterase: 0.1008%; PfKRS1: 2.371%
- O=c1oc(-c2ccc(F)cc2)nn1CCc1ccccn1 : MtTrpRS: -1.801%; ClpP1P2: 7.691%; Pks13 thioesterase: 32.73%; PfKRS1: -1.973%
- Cc1cnn(CC2CCCCN2C(=O)c2ccc3nnc(C)n3c2)c1 (centres unmarked) : MtTrpRS: -2.737%; ClpP1P2: 4.369%; Pks13 thioesterase: -10.79%; PfKRS1: 2.435%
- Cc1noc(C)c1CN1CCOC2(CCCN(c3nncs3)C2)C1 (centres unmarked) : MtTrpRS: 6.184%; ClpP1P2: -1.76%; Pks13 thioesterase: -28.24%; PfKRS1: 16.04%
- CCc1nnc(CNCC2CCCN2c2cccnn2)o1 (centres unmarked) : MtTrpRS: -1.234%; ClpP1P2: -5.2%; Pks13 thioesterase: -8.74%; PfKRS1: 3.533%
- CC(C)N(C)Cc1noc2c1CN(C(=O)c1cnccn1)CC2 : MtTrpRS: -0.183%; ClpP1P2: 13.18%; Pks13 thioesterase: 5.131%; PfKRS1: 2.091%

3 of the entries, repeated:

- Cc1nn(C)c(C)c1C1CCCN1C(=O)c1cnc2n[nH]c(C)c2c1 (centres unmarked) | MtTrpRS: -3.013%; ClpP1P2: 8.127%; Pks13 thioesterase: -11.39%; PfKRS1: 0.274%
- COc1ccc(C(=O)NCCN2CCC(c3cccs3)CC2)cc1OC | MtTrpRS: 5.282%; ClpP1P2: -6.223%; Pks13 thioesterase: 25.2%; PfKRS1: 5.873%
- CC(=O)c1cnc(N(C)Cc2cc(C)cc(C)n2)nc1C | MtTrpRS: -1.25%; ClpP1P2: 3.841%; Pks13 thioesterase: -3.579%; PfKRS1: 16.91%